In doi:10.1101/2021.07.09.451837:
Like-named read-outs stand apart in the source and are kept apart here. Results are given in words; binding and its absence hold for the method and conditions named. For some assays here: Binding can be weak; no strength is given.

Protein sequences, listed by entry. Tags and fused reporters are not part of them.
UniProt Q9SEH3: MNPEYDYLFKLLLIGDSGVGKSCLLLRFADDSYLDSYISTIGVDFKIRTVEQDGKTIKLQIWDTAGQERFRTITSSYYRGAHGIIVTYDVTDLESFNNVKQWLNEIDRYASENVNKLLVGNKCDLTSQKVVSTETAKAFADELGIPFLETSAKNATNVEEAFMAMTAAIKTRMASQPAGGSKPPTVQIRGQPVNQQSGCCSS

How the values were obtained:
[1] = molecular target: His6-tagged RabD2c (Rab GTPase, At4g17530) (Arabidopsis thaliana) (UniProt Q9SEH3); assay: pull-down
[2] = molecular target: His6-tagged RabD2c (Rab GTPase, At4g17530) (Arabidopsis thaliana) (UniProt Q9SEH3); assay: pull-down; remark: listed apart in the source

binding [1]: binds | binding [2]: no binding (only with 1 mM GDP)
Substance: MBP-RXR1, full length (from UniProt Q9LSF2)
